# Experimental data taken from patent US20060193784A1 (priority 2005, published 2006).
# Like-named read-outs stand apart in the source and are kept apart here.
# How the values were obtained:
# in vivo = details: male, New Zealand albino, rabbit, iv, 100 ug/kg
# [1] = cited from earlier work
# [2] = after oral administration (Renner et al.)
smiles,measurement,setting,value
"CN1[C@@H]2C[C@@H](OC(=O)[C@H](CO)c3ccccc3)C[C@H]1[C@@H]1O[C@@H]12 [scopolamine, L-(−)-hyoscine]",AUC(0-inf),in vivo,1280 ng·h/mL
same,non-metabolized scopolamine excreted in urine,[1]; [2],2.6%
same,time until peak plasma concentration is reached,[1]; [2],30 min
same,time until peak plasma concentration is reached,[1]; after transdermal dosing (Cintron et al.; Shaw et al.),720 to 960 min
